The target in this data set is T1, His6-SAV577 (UniProt Q82QD3).
T1 sequence (looked up, limits assumed): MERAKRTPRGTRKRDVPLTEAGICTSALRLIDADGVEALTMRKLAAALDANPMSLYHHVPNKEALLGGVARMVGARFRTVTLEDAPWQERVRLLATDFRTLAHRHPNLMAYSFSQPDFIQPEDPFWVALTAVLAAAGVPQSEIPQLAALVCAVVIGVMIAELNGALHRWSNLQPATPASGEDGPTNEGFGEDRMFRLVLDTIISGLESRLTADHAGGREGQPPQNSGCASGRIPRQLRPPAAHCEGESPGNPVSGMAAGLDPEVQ
Kind of data set: EMSA. The following applies: 0.3 nM probe; EMSA: Roche DIG Gel Shift kit binding buffer, 1 ug poly[d(I-C)] per 20 ul, 25 C 30 min, 5% native PAGE 0.5x TBE; recombinant protein; protein details: N-terminal His6; label: DIG 3'-end; probe letters rebuilt from the primers and the genome. A general note: Mobility shift assays separate free from complexed probe on a gel.

This is an account of results in article PMC4051647, “Two Adjacent and Similar TetR Family Transcriptional Regulator Genes, SAV577 and SAV576, Co-Regulate Avermectin Production in Streptomyces avermitilis”.

The exact form of at least one protein or probe is not confirmed. Negatives hold for the conditions tested. Protein sequences can lack the tags named with them.

Take “AGGACGGTGGCATCGTTTTCAGCCCCTCGTTCCTCCGGTTTCGCGGAAGCGGGCTGTGTGCTGGTGGGCGGCGTAACTGGCGACGGGCAGTCCCGAACTGGTGGCCTTGATGGCCGACGAGGTCGTCAAGGCATGCCTCGGCCAGGAAAAGGCTCAGGCGGGAAGCTGCGCTCGAGGGGTGCAGCAAGGCGCTCGAGCGGCGGCTTCAGCGCACTGCCGCCTGACGTGTGCGGGCGTAGGACCGGGCGAGGCGTGTCGACCGCTCCCACTCCCGGTGTGCTCGCCCGCGGCGGCGGATCGCAGATATGCCCTGCCGAGGAGACCCTGGCGAAC (double strand) [probe 5]”: the binding result is on record as “no binding”.
